# In all, about 340,000 compounds went through this assay and about 170 (0.05%) were called active. The shares of active, inactive and inconclusive entries below differ from those in the screen. Calls follow the shape of the dose curve; as a rule, active = well fitted inhibition curve with a large enough effect in the signal ratio, with a control signal flat (not every such curve was filed as active); inconclusive = small, poorly fitted or top-dose-only effect, or effect the other way, or a change in a side signal; inactive = flat fitted curve, though single readings scatter; the % refers to the signal ratio. Potencies beside an inconclusive call are fits to weak or partial responses and may not hold up.
# Assay: qHTS Assay to Find Inhibitors of Chronic Active B-Cell Receptor Signaling;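 as to activity change, negative = inhibition: plate controls were basal doxycycline-induced cells for no effect and cells given 10 µM MG132 for full effect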
# Details: ABC-DLBCL IkBa-CBG/CBR reporter, luminescence ratio (green luciferase fused to IkBa over red control in TMD8 lymphoma cells), 4 h; activity change, negative = inhibition: at 46.1 µM (top of the series) unless noted
# Method in brief: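 Cell line TMD8 (human ABC DLBCL), stably expressing tet-inducible CBG68-IkBa fusion and CBR; IMDM/0.5% FBS; cpd up to 46 uM; dox induction, 4 h, 37C/5% CO2; dual luminescence; green/red ratio; MG132 control.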
# Potency is read from the fitted curve at half-maximal effect.
Compound,Potency,"activity change, negative = inhibition"
O=C(CSc1ncn[nH]1)Nc1ccccc1Sc1ccc(Cl)cc1,"inconclusive: 35.5 µM [falling, single point]",
COc1ccc(CCN2C(=O)CN(Cc3ccccc3)CC2=O)cc1OC,,inconclusive: -0.781%
CCC1CN(C(=O)NCc2ccc(F)cc2)c2cc(Cl)ccc2O1 (centres undefined),,inactive: -0.126%
C/C(=N\NC(=S)Nc1ccc(C)c(C)c1)c1ccc(N2CCOCC2)cc1,,inactive: 0.461%
CCOC(=O)c1c(C)[nH]c(C)c1S(=O)(=O)N(C)CC(=O)NCc1ccc(C)cc1,,inconclusive: -2.47%
O=C(CSc1nnc2ccccn12)NNC(=O)c1cccc(Cl)c1,,inconclusive: -4%
O=C(O)c1cccnc1SC1CC(=O)N(c2ccc(OC(F)F)cc2)C1=O (centres undefined),,inconclusive: -3.23%
COc1cc(OC)cc(C(=O)N[C@H](C(=O)OCC(=O)Nc2cccc(F)c2)C(C)C)c1,,inconclusive: 0.122%
N#Cc1ccccc1COC(=O)c1ccc2c(c1)OCCO2,,inactive: 9.96%
CN(C)C(=O)c1ccc(Nc2nc(-c3cccs3)nc3ccccc23)cc1,,inactive: 2.8%
CCOc1cc(S(=O)(=O)Nc2ccccc2CC)ccc1Cl,"inconclusive: 4.61 µM [rising, full curve]",
CCOC(=O)C/C(C)=N\Nc1nc(-c2ccccc2)cs1,"inconclusive: 10 µM [falling, partial curve]",
COc1cccc(/C=N/NC(=O)CNC(=O)c2cccnc2)c1O,,inactive: 0.431%
O=C(Cc1ccccc1)Nc1ccnn1C1CCN(Cc2ccc(CO)o2)CC1,,inconclusive: -6.71%
CC(=O)Oc1ccc(-c2cccc(C(=O)O)c2)cc1,,inconclusive: -0.546%
O=C(Nc1ncccn1)c1ccc(C(F)(F)F)cc1,,inconclusive: -18.7%
COc1cc2c(cc1OC)C1(Nc3c-2c(Cc2ccccc2)nn3-c2ccccc2)C(=O)Nc2ccccc21 (centres undefined),,inconclusive: 8.88%
Cc1cccc(Cl)c1NC(=S)NCCc1ccccn1,,inactive: 10.3%
Clc1ccc(-n2cccc2/C=N/n2cnnc2)cc1,,inconclusive: 16%
CCOC(=O)C1(CCOc2ccccc2)CCN(Cc2cnc(C)[nH]2)CC1,,inactive: 0.0778%
Cc1ccc(C2C=C(c3ccccc3)Nc3nc(NS(=O)(=O)c4ccc(C)cc4)nn32)cc1 (centres undefined),,inactive: -1.14%

Compound,Potency,"activity change, negative = inhibition"
Nc1nc(SCC(=O)c2ccc(Br)s2)n[nH]1,,inconclusive: -2.81%
O=C(Nc1nc(-c2ccccc2)cs1)c1ccc(N2CCOCC2)c([N+](=O)[O-])c1,,inconclusive: 4.73%
Cc1ccc(CSCC(=O)N(C)CC(=O)Nc2ccc(Cl)c(Cl)c2)cc1,,inconclusive: -25.8%
Fc1ccccc1NC(=S)Nc1ccc(Br)cc1,,inactive: 10.4%
Nc1ccc(-c2c3ccccc3nc3ccccc23)cc1,,inconclusive: 0.187%
Cn1cc(CCC(=O)N2CCCC(CCC(=O)NCc3ccccc3F)C2)cn1 (centres undefined),,inconclusive: 0.673%
Cc1ccc(Oc2ncnc(N)c2[N+](=O)[O-])cc1C,"inconclusive: 10 µM [falling, partial curve, poor fit]",
COc1ccc(-n2c(SCC(=O)NCc3ccco3)nc3c([nH]c4ccccc43)c2=O)cc1,,inconclusive: -2.78%
c1ccc(CN2CCN(c3nc(NCc4ccco4)c4ccccc4n3)CC2)cc1,"inconclusive: 2.59 µM [rising, partial curve]",
CCc1ccc(-c2cc(C)no2)cc1S(=O)(=O)N1CCN(c2cc(C)ccc2C)CC1,,inactive: 7.43%
Cc1ccc(NC(=O)CSc2nc3ccccc3c(=O)n2CCC(=O)NC2CCCCC2)cc1C,,inactive: 1.82%
CCC(=O)Nc1ccc(C(=O)Nc2cccnc2)cc1,,inconclusive: 2.54%
CCOc1ccc2nc(NC(=O)Cn3cnc4c3c(=O)n(C)c(=O)n4C)sc2c1,,inconclusive: -0.875%
O=C(CCS(=O)(=O)c1ccc(F)cc1)Nc1nc(-c2ccccn2)cs1,"inconclusive: 5.01 µM [rising, partial curve, poor fit]",
CC(CN(C)Cc1ccccc1)OC(=O)c1cccs1 (centres undefined),,inconclusive: 9.85%
OC(CNCC1CCCO1)Cn1c2ccc(Cl)cc2c2cc(Cl)ccc21 (centres undefined),,inactive: 0.395%
CCC(C)Nc1ccc(NC(C)CC)cc1 (centres undefined),"inconclusive: 23.1 µM [falling, partial curve, poor fit]",
S=C1CSc2ccccc2N1,,inactive: -5.54%
CC(Sc1nc(-c2ccccc2)cs1)C(=O)Nc1ccc(Cl)cn1 (centres undefined),"inconclusive: 20.6 µM [falling, partial curve]",
COC(=O)C1=CN(C)C=C(C(=O)OC)C1c1ccccc1Cl,"inconclusive: 23.1 µM [falling, single point]",
O=C(NCc1ccncc1)C(=O)NCC(c1ccco1)N1CCN(c2ccccc2)CC1 (centres undefined),,inconclusive: 0.859%

Compound,Potency,"activity change, negative = inhibition"
COc1ccc(N=NC2=C(O)CC(C)(C)CC2=O)c(OC)c1,,inconclusive: 12.3%
Cn1ncc(Br)c1C(=O)N/N=C/c1ccc(OS(=O)(=O)c2ccccc2)cc1,,inconclusive: -23%
C/C(CC(=O)NC1CCCCCC1)=N\NC(=O)c1cnccn1,,inconclusive: -12%
O=C1c2ccccc2/C(=C\c2ccc3[nH]ccc3c2)N1c1ccccc1,,inconclusive: -1.98%
Cc1ccc(S(=O)(=O)Nc2ccc(NC(=O)/C=C/C(=O)O)cc2)cc1,,inconclusive: -0.85%
Cc1ccc(NC2Nc3cc(C)nn3S2)c(C)c1 (centres undefined),,inconclusive: 11.9%
CC(=O)N(C(C)=O)n1c(C)nc2sc3c(c2c1=O)CCCC3,,inconclusive: 9.03%
CCOC(=O)c1cc2cc(OCc3ccccc3)ccc2nc1C,,inconclusive: 1.1%
CCc1ccc(N2CC(C(=O)OCC(=O)c3c(N)n(CC(C)C)c(=O)n(C)c3=O)CC2=O)cc1 (centres undefined),,inconclusive: 12.6%
COc1ccccc1C(=O)Nc1cccc(N(C)S(C)(=O)=O)c1,,inconclusive: 7.07%
O=C(NCC1CCN(C(=O)c2ccc([N+](=O)[O-])cc2)CC1)c1ccc([N+](=O)[O-])cc1,,inconclusive: 6.29%
Nc1nc2nc(-c3ccccc3)cc(C(F)(F)F)c2s1,,inconclusive: -15.4%
N=c1n(CC(=O)c2cccc([N+](=O)[O-])c2)c2ccccc2n1Cc1ccccc1,"inconclusive: 35.5 µM [falling, single point]",
Cc1ccc[n+](CC(=O)Nc2ccc([N+](=O)[O-])cc2Cl)c1,,inconclusive: -0.661%
CCOC(=O)c1sc(=NC(=O)c2cccc(Br)c2)n(C)c1C,"inconclusive: 17.8 µM [falling, partial curve]",
CC(C)C(=O)Nc1ccc2c(c1)nc(CCN1CCN(C)CC1)n2C,"inconclusive: 0.82 µM [rising, full curve, poor fit]",
COC(=O)c1ccc2c(=O)n(CCCCCC(=O)N3CCN(c4cc(C)ccc4C)CC3)c(=O)[nH]c2c1,,inconclusive: 2.88%
c1ccc2oc(-c3ccc4nc[nH]c4c3)nc2c1,"inconclusive: 20.6 µM [falling, single point]",
CCOc1ccc2nc3cc(NCc4ccc(OC)cc4)ccc3c(N)c2c1,,inactive: 5.42%
CCc1cc2ccc(C)cc2nc1SCC(=O)Nc1c[nH]c(=O)[nH]c1=O,,inconclusive: -22.3%
COc1ccc(CCNc2nc(SCc3ccccc3F)nc3ccccc23)cc1OC,,inactive: -6.1%

Compound,Potency,"activity change, negative = inhibition"
N=C1C(c2nc3ccccc3s2)=C(O)CN1c1ccccc1,,inactive: -4.62%
Cc1ccccc1Nc1nc(NCc2ccco2)c2ccccc2n1,,inconclusive: -23.4%
FC(F)(F)c1cc(-c2ccco2)nc(NCc2cccnc2)n1,,inconclusive: -4.87%
CC1(c2ccccc2Cl)NC(=O)N(CC(=O)N2CCc3ccccc3C2)C1=O (centres undefined),,inconclusive: -18.1%
O=C(Nc1ccccc1C(=O)N1CCCCC1)c1cccs1,,inconclusive: -0.189%
CC12CN3CC(C)(CN(C1)C3c1ccc([N+](=O)[O-])o1)C2 (centres undefined),,inactive: 0.856%
CCCCC(CC)CNC(=O)CCCCn1c(=O)[nH]c2ccsc2c1=O (centres undefined),,inconclusive: -1.9%
CC(C)(C(=O)N[C@H](CO)c1ccccc1)C(=O)N[C@H](CO)c1ccccc1,"inconclusive: 11.2 µM [falling, single point]",
COC(=O)[C@H](CCSC)NC(=O)Nc1cc(OC)cc(OC)c1,,inconclusive: 5.05%
CN(C)c1ccc(/C=C/C(=O)c2ccccc2)cc1[N+](=O)[O-],"inconclusive: 29.1 µM [falling, single point]",
O=[N+]([O-])c1ccccc1N/N=C1\CC2CC=CC12 (centres undefined),,inconclusive: -2.37%
O=C(OCC(=O)N(CCc1ccccc1)Cc1ccccc1)c1ccccc1NCCO,,inconclusive: -9.22%
Cc1ccc(C(=O)CSc2nnnn2C(C)C)c(C)c1,,inconclusive: 8.57%
CCOc1ccccc1NC(=O)c1cc(-c2cc(OC)c(OC)c(OC)c2)nc2ccccc12,,inconclusive: -0.709%
COc1ccc2c(=O)c3c(=O)n(-c4ccccc4)c(-c4ccco4)nc3oc2c1,"inconclusive: 20.6 µM [falling, partial curve]",
O=C(CCSc1ccccc1)NC1CCCCCC1,"inconclusive: 17.8 µM [falling, single point]",
CCOc1ccc(S(=O)(=O)Nc2ccccc2C(=O)Nc2ccccc2N2CCOCC2)cc1,,inconclusive: 1.83%
CCNS(=O)(=O)c1ccc(NC(=O)Nc2ccc3c(c2)OCO3)cc1,,inconclusive: -3.15%
CCN(CC)S(=O)(=O)c1ccc2c(c1)c(=O)c(C(=O)NCCc1ccccc1)cn2C,,inactive: 2.82%
CCCC(=O)OCC(=O)c1[nH]c(C)c(C(C)=O)c1C,,inconclusive: 10.6%
CCOC(=O)C1=CN(Cc2ccco2)S(=O)(=O)N(CC)C1c1ccc(C(F)(F)F)cc1 (centres undefined),,inconclusive: 1.69%

# Fetched by structure from the list above:
Compound,Potency,"activity change, negative = inhibition"
O=C(CCSc1ccccc1)NC1CCCCCC1,"inconclusive: 17.8 µM [falling, single point]",
CCCCC(CC)CNC(=O)CCCCn1c(=O)[nH]c2ccsc2c1=O (centres undefined),,inconclusive: -1.9%
CCCC(=O)OCC(=O)c1[nH]c(C)c(C(C)=O)c1C,,inconclusive: 10.6%
CN(C)c1ccc(/C=C/C(=O)c2ccccc2)cc1[N+](=O)[O-],"inconclusive: 29.1 µM [falling, single point]",
FC(F)(F)c1cc(-c2ccco2)nc(NCc2cccnc2)n1,,inconclusive: -4.87%

# From PubChem BioAssay AID493014 (National Center for Advancing Translational Sciences (NCATS), 2011)
